Reference: patent US10857167B2, “Use of oligosaccharide compositions to enhance weight gain” (Children's Hospital Medical Center, priority 2015, dated 2020)
The source gives many values for each of these; only a part stands here.

Tested on: distal small bowel gene expression
Assay: RNA sequencing / transcriptional analysis of small bowel 56 days after ICR (2′-FL signature response)
Type: in vivo, mouse
From the text: Luminal small bowel contents were expressed into AllProtect Tissue Reagent (Qiagen Inc, CA). Bacterial DNA was extracted using the AllPrep DNA/RNA Mini Kit (Qiagen Inc, CA), according to kit instructions and prior to sequencing (described below). Small bowel tissue samples for RNA were placed into RNA Later (Life Technologies, NY). RNA extraction was accomplished following Qiagen RNeasy Plus Kit instruction (Qiagen Inc, CA). All nucleic acid samples were then stored at -80 Celsius until sequenced (described below). Transcriptional analysis was carried out on resected and harvested small bowel samples obtained from operated mice taken to 8 weeks. Murine RNA sequencing libraries were prepared from approximately 1.5 μg RNA using the TruSeq RNA Sample Preparation Kit (Illumina, Calif.) and sequenced using the HiSeq 2000 Sequencing System (Illumina, Calif.) with single-end 50 bp reads. Following removal of primers and barcodes, sequences were aligned to the mm10 genome using reference annotations from UCSC (Rosenbloom et al. (2015) Nucleic acids research 43: […]-681) (n=36,186 entities). Aligned reads were quantified and used to compute reads per kilobase per million mapped reads (RPKM); raw counts were then normalized using the DESeq algorithm and each harvested sample was baselined to its own resected sample. A filter was applied to the data, requiring at least three reads in all samples of at least one of the four experimental conditions (n=14,489 entities). The data discussed in this publication have been deposited in NCBI's Gene Expression Omnibus and are accessible through NCBI Gene Expression Omnibus (GEO) Series accession number GSE72590. Edgar et al. (2002) Nucleic acids research 30: 207-210. In order to characterize the impact of 2'-FL supplementation while accounting for the effect of ileoecal resection, a t-test was applied between resected and harvested samples within control and experimental animals. Significance was set at a p-value of ≤0.05 and a fold change of 3, which generated 2,576 differentially regulated entities across two comparisons. Gene set unions and intersections of the control and experimental gene sets were identified through Venn diagrams. From the master list, the gene list specific to animals supplemented with 2'-FL were removed in order to identify genes differentially regulated only by ICR (n=546 entities); this gene set characterizes the adaptive response. Further, the 2'-FL response (n=2,030 entities) was identified by removing the adaptive response signature described above from the master list, leaving only genes regulated by 2'-FL supplementation after ICR which were not found in the non-supplemented adaptive response. Heatmaps were generated using hierarchical clustering with the Pearson's Centered distance metric and the average linkage rule; both entities and samples were clustered. All genomic analyses described above were performed in Strand NGS (Strand Life Sciences, CA). Gene list functional enrichment was initially discovered using ToppFun, a member of the ToppGene Suite. Chen et al. (2009) Nucleic acids research 37: […]-311. No statistical correction was selected. Gene lists were further analyzed using ClueGO, a plugin for Cytoscape designed to decipher functionally grouped gene ontology and pathway annotation networks. Bindea et al. (2009) Bioinformatics 25: 1091-1093. At the time of data analysis, the annotation files were updated from sources to Jan. 1, 2015. “GO Term Fusion” was enabled to manage ontologic term redundancy and network specificity was set to medium. Results were restricted to pathways with p≤0.05 using Benjamini-Hochberg correction and Kappa scoring was set to 0.4. Biocyc annotations were assigned a rectangle, gene ontology biologic processes were assigned an ellipse, and […] annotations were assigned a diamond shape. No meaning was assigned to size or color. […]

SMILES: C[C@@H]1O[C@@H](O[C@H]2[C@H](O[C@H]3[C@H](O)[C@@H](O)C(O)O[C@@H]3CO)O[C@H](CO)[C@H](O)[C@@H]2O)[C@@H](O)[C@H](O)[C@@H]1O (stereo partly drawn) [2′-FL, 2′-fucosyllactose]
- Fold Change (Pre- to Post-op) (Xcl1): 3.202
- Fold Change (Pre- to Post-op) (Xlr): 4.095
- Fold Change (Pre- to Post-op) (Zfp2): 3.418
- Fold Change (Pre- to Post-op) (Zfp53): 3.119
- Fold Change (Pre- to Post-op) (Zfp92): 7.306
- Fold Change (Pre- to Post-op) (Znhit3): 5.716
- Fold Change (Pre- to Post-op) (gene 4-Mar): −3.709
- Fold Change (Pre- to Post-op) (gene 8-Sep): −3.058
- Fold Change (Pre- to Post-op) (gene 1500004A13Rik): −7.779
- Fold Change (Pre- to Post-op) (gene 2310067B10Rik): −4.412
- Fold Change (Pre- to Post-op) (gene 2410004B18Rik): 3.038
- Fold Change (Pre- to Post-op) (gene 2900026A02Rik): −4.697
- Fold Change (Pre- to Post-op) (gene 4833424O15Rik): −4.785
- Fold Change (Pre- to Post-op) (gene 4833432E10Rik): −4.036
- Fold Change (Pre- to Post-op) (gene 4922501C03Rik): −6.352
- Fold Change (Pre- to Post-op) (gene 4930470H14Rik): −5.531
- Fold Change (Pre- to Post-op) (gene 4933417A18Rik): −3.706
- Fold Change (Pre- to Post-op) (gene 5031414D18Rik): −6.733
- Fold Change (Pre- to Post-op) (gene 5330417C22Rik): −6.513
- Fold Change (Pre- to Post-op) (gene 6330408A02Rik): −5.107
- Fold Change (Pre- to Post-op) (gene 6430548M08Rik): −3.559
- Fold Change (Pre- to Post-op) (gene 6530402F18Rik): −4.826
- Fold Change (Pre- to Post-op) (gene 9330159F19Rik): −5.945
- Fold Change (Pre- to Post-op) (gene 9430020K01Rik): −3.69
- Fold Change (Pre- to Post-op) (gene 9530026P05Rik): −4.147
- Fold Change (Pre- to Post-op) (gene 9930021J03Rik): −3.702
- Fold Change (Pre- to Post-op) (gene A4gnt): −3.049
- Fold Change (Pre- to Post-op) (gene A430033K04Rik): −3.457
- Fold Change (Pre- to Post-op) (gene A530020G20Rik): −4.03
- Fold Change (Pre- to Post-op) (gene A630081J09Rik): −4.427
- Fold Change (Pre- to Post-op) (gene AI661453): −4.477
- Fold Change (Pre- to Post-op) (gene Abca3): −5.574
- Fold Change (Pre- to Post-op) (gene Abcc1): −3.364
- Fold Change (Pre- to Post-op) (gene Abcc4): −3.37
- Fold Change (Pre- to Post-op) (gene Abcc9): −4.38
- Fold Change (Pre- to Post-op) (gene Abcd2): −7.23
- Fold Change (Pre- to Post-op) (gene Abl1): −4.067
- Fold Change (Pre- to Post-op) (gene Abl2): −6.401
- Fold Change (Pre- to Post-op) (gene Ablim2): −6.48
- Fold Change (Pre- to Post-op) (gene Acaca): −4.829
- Fold Change (Pre- to Post-op) (gene Acacb): −4.267
- Fold Change (Pre- to Post-op) (gene Ace): −5.246
- Fold Change (Pre- to Post-op) (gene Ache): −7.968
- Fold Change (Pre- to Post-op) (gene Acin1): −3.533
- Fold Change (Pre- to Post-op) (gene Actn1): −3.794
- Fold Change (Pre- to Post-op) (gene Acvr1b): −4.313
- Fold Change (Pre- to Post-op) (gene Acvr2b): −3.139
- Fold Change (Pre- to Post-op) (gene Adam12): −3.327
- Fold Change (Pre- to Post-op) (gene Adam19): −5.06
- Fold Change (Pre- to Post-op) (gene Adam23): −6.411
- Fold Change (Pre- to Post-op) (gene Adamtsl3): −5.144
- Fold Change (Pre- to Post-op) (gene Adamtsl4): −6.749
- Fold Change (Pre- to Post-op) (gene Adcy1): −7.314
- Fold Change (Pre- to Post-op) (gene Adcy9): −4.853
- Fold Change (Pre- to Post-op) (gene Adcyap1r1): −5.913
- Fold Change (Pre- to Post-op) (gene Adhfe1): −4.424
- Fold Change (Pre- to Post-op) (gene Adipoq): −6.67
- Fold Change (Pre- to Post-op) (gene Adrbk2): −4.017
- Fold Change (Pre- to Post-op) (gene Aebp1): −4.872
- Fold Change (Pre- to Post-op) (gene Agap1): −3.615
- Fold Change (Pre- to Post-op) (gene Ago1): −3.623
- Fold Change (Pre- to Post-op) (gene Ago2): −5.249
- Fold Change (Pre- to Post-op) (gene Ahdc1): −5.847
- Fold Change (Pre- to Post-op) (gene Akap2): −5.63
- Fold Change (Pre- to Post-op) (gene Akap12): −8.622
- Fold Change (Pre- to Post-op) (gene Akap13): −8.027
- Fold Change (Pre- to Post-op) (gene Akna): −5.832
- Fold Change (Pre- to Post-op) (gene Alppl2): −5.838
- Fold Change (Pre- to Post-op) (gene Als2): −3.126
- Fold Change (Pre- to Post-op) (gene Amer1): −4.883
- Fold Change (Pre- to Post-op) (gene Amotl1): −4.829
- Fold Change (Pre- to Post-op) (gene Amotl2): −4.67
- Fold Change (Pre- to Post-op) (gene Ampd2): −3.56
- Fold Change (Pre- to Post-op) (gene Angel1): −5.704
- Fold Change (Pre- to Post-op) (gene Ank2): −4.668
- Fold Change (Pre- to Post-op) (gene Ankrd11): −6.322
- Fold Change (Pre- to Post-op) (gene Ankrd35): −5.751
- Fold Change (Pre- to Post-op) (gene Ankrd63): −4.472
- Fold Change (Pre- to Post-op) (gene Anks1): −4.241
- Fold Change (Pre- to Post-op) (gene Anks6): −7.123
- Fold Change (Pre- to Post-op) (gene Ano7): −5.737
- Fold Change (Pre- to Post-op) (gene Ano8): −3.835
- Fold Change (Pre- to Post-op) (gene Antxr1): −3.495
- Fold Change (Pre- to Post-op) (gene Aoc3): −6.132
- Fold Change (Pre- to Post-op) (gene Aox1): −6.358
- Fold Change (Pre- to Post-op) (gene Ap2a1): −3.359
- Fold Change (Pre- to Post-op) (gene Ap3b2): −4.515
- Fold Change (Pre- to Post-op) (gene Apba2): −3.441
- Fold Change (Pre- to Post-op) (gene Apbb1ip): −6.816
- Fold Change (Pre- to Post-op) (gene Apc): −3.693
- Fold Change (Pre- to Post-op) (gene App): −3.172
- Fold Change (Pre- to Post-op) (gene Aqr): −3.528
- Fold Change (Pre- to Post-op) (gene Arfgef2): −3.468
- Fold Change (Pre- to Post-op) (gene Arhgap20): −5.715
- Fold Change (Pre- to Post-op) (gene Arhgap23): −8.447
- Fold Change (Pre- to Post-op) (gene Arhgap31): −3.584
- Fold Change (Pre- to Post-op) (gene Arhgap32): −3.618
- Fold Change (Pre- to Post-op) (gene Arhgef10): −5.663
- Fold Change (Pre- to Post-op) (gene Arhgef10l): −3.258
- Fold Change (Pre- to Post-op) (gene Arhgef11): −4.867
- Fold Change (Pre- to Post-op) (gene Arhgef12): −3.668
- Fold Change (Pre- to Post-op) (gene Arhgef15): −7.458
- Fold Change (Pre- to Post-op) (gene Arhgef17): −4.97
- Fold Change (Pre- to Post-op) (gene Arhgef40): −3.866
- Fold Change (Pre- to Post-op) (gene Arid1a): −5.133
- Fold Change (Pre- to Post-op) (gene Arid3a): −3.299
- Fold Change (Pre- to Post-op) (gene Arid5a): −3.254
- Fold Change (Pre- to Post-op) (gene Armcx4): −7.289
- Fold Change (Pre- to Post-op) (gene Arsb): −3.029
- Fold Change (Pre- to Post-op) (gene Asap2): −3.409
- Fold Change (Pre- to Post-op) (gene Ash1l): −4.598
- Fold Change (Pre- to Post-op) (gene Asic2): −3.543
- Fold Change (Pre- to Post-op) (gene Astn2): −4.06
- Fold Change (Pre- to Post-op) (gene Atf7): −8.82
- Fold Change (Pre- to Post-op) (gene Atf7ip): −5.458
- Fold Change (Pre- to Post-op) (gene Atp1a3): −7.338
- Fold Change (Pre- to Post-op) (gene Atp2a2): −3.186
- Fold Change (Pre- to Post-op) (gene Atp2a3): −3.405
- Fold Change (Pre- to Post-op) (gene Atp2b4): −4.839
- Fold Change (Pre- to Post-op) (gene Atp10a): −3.252
